Measurements published in patent publication US6207399A (Hemker; Hendrik Coenraad, priority 1995, dated 2001).

Legend:
[1] = general procedure: solution-phase peptide synthesis; ONSu active esters with DIPEA in DMF
[2] = tested on: thrombin formation in plasma; test: Continuous registration of the thrombin generation curve (continuous assay of ETP); format: biochemical, human; conditions: for heparin (ISH) concentration at which the substrate gives a correct thrombin generation curve in the continuous assay: heparinized plasma, substrate 500 μM
Method: (§1) Continuous registration of the thrombin generation curve: Extrinsic pathway: In a polystyrene microcuvette were added: 400 μL defibrinated plasma, 20 μL of a 45 μM phospholipid solution (final concentration: 1.5 μM), 140 μL of buffer A which contains the substrate at the desired final concentration (100-2000 μM). After 4 min of incubation at 37° C., 20 μL tissue factor (undiluted) was added. Thrombin generation was started by adding 20 μL of a 0.5 M CaCl2 solution (final concentration: 16.67 mM); during the measurement the temperature was kept at 37° C. The optical density was monitored at 405 nm. From the obtained optical density curve, the first derivative was calculated. This gives the enzyme concentration during the measurement. Intrinsic pathway: 400 μL defibrinated plasma, 110 μL buffer A (eventually containing the substances to be tested) and 40 μL Actin FS (undiluted) were added in a plastic microcuvette, intensively mixed and incubated at 37° C. during 4 min. Then 30 μL of a 10 mM substrate solution (final concentration: 500 μM), followed by 20 μL of a 0.5 M CaCl2 solution (final concentration: 16.7 mM) were added (both solutions were prewarmed at 37° C. for 4 min). The optical density was measured at 37° C. at 405 nm during 20 min.
as §1, with “concentration: 1.5 μM) and 140 μL” for “concentration: 1.5 μM), 140 μL”, “final concentration (500 μM). After” for “final concentration (100-2000 μM). After”, “derivative was calculated giving the enzyme” for “derivative was calculated. This gives the enzyme”, “20 min. Contact activation: 400 μL defibrinated plasma, 100 μL buffer A (eventually containing the substances to be tested), 9 μL of a 100 μM phospholipid solution (final concentration: 1.5 μM) and 40 μL kaolin (0.5 mg/mL) were added in a plastic microcuvette, intensively mixed and incubated at 37° C. during 4 min. (It was not necessary to remove kaolin by centrifugation.) Then 30 μL of a 10 mM substrate solution (final concentration: 500 μM), followed by 20 μL of a 0.5 M CaCl2 solution (final concentration: 16.7 mM) were added (both solutions were prewarmed at 37° C. for 4 min). The optical density was measured at 37° C. at 405 nm during 25 min.” for “20 min.”

[3] = late stage modification step, 2HCl

Work on 2HCl.H-Glu-Gly-Gly-Gly-Val-Arg-pNA yielded a step yield [1, 3] of 91%.

With 2HCl.H-Glu-Gly-Gly-Val-Arg-pNA the step yield [1, 3] was 94%.

With 2HCl.H-Glu-Gly-Pro-Gly-Val-Arg-pNA the step yield [1, 3] was 90%.

Compound 2HCl.H-Glu-Pro-Gly-Gly-Val-Arg-pNA has a step yield [1, 3] of 92%.

2HCl.H-Pro-Gly-Gly-Val-Arg-pNA showed a step yield ([1]; late stage modification step, HCl) of 87%.

In the case of `Cl.Cl.NCCCC[C@H](NC(=O)[C@@H]1CCCN1C(=O)[C@H](N)Cc1ccccc1)C(=O)Nc1ccc([N+](=O)[O-])cc1` [2HCl.H-D-Phe-Pro-Lys-pNA] (H-[dF]-Pro-Lys-pNA), the “heparin (ISH) concentration at which the substrate gives a correct thrombin generation curve in the continuous assay” value (shortened to “heparin (ISH) concentration”) [2] is reported as 5 U ISH/mL.

With `CC(C)[C@H](N)C(=O)N[C@@H](CCCNC(=N)N)C(=O)Nc1ccc([N+](=O)[O-])cc1.Cl.Cl` [2HCl.H-Val-Arg-pNA] (H-Val-Arg-pNA) the “heparin activity of the sample at which the substrate can be used for ETP determination in a continuous assay” value (shortened to “heparin activity of the sample”) [2] was 0.10-0.15 U ISH/ml.

For `CC(C)[C@H](NC(=O)CNC(=O)OC(C)(C)C)C(=O)N[C@@H](CCCNC(=N)N)C(=O)Nc1ccc([N+](=O)[O-])cc1.Cl` [Boc-Gly-Val-Arg-pNA.HCl] (Boc-Gly-Val-Arg-pNA), the “heparin (ISH) concentration” value [2] was “up to 2 U ISH/mL”.

For `COC(=O)CC(=O)NC(C)(C)C(=O)N[C@@H](CCCNC(=N)N)C(=O)Nc1ccc([N+](=O)[O-])cc1.Cl` [MZ-Aib-Arg-pNA.HCl, malonyl-α-aminoisobutyryl-arginine p-nitroanilide methyl ester monohydrochloride], the “anticoagulant activity of the sample below which the substrate can be used in a continuous assay for ETP determination” value [2] was < 0.7 International Standard Units of heparin, the “heparin activity of the sample” value [2] was “at most 0.07 U ISH/ml” and the “limit of reliable detectability of ETP, of the normal value of plasma” value [2] was 5%. The “jump in optical density of plasma at the end of the ETP assay” value ([2]; optimal conditions) was about 100 mOD.

With `CC(C)[C@H](NC(=O)OCCS(C)(=O)=O)C(=O)N[C@@H](CCCNC(=N)N)C(=O)Nc1ccc([N+](=O)[O-])cc1.Cl` [Msc-Val-Arg-pNA.HCl] the “heparin activity of the sample” value [2] was “up to 0.25 U ISH/ml”, the “limit of reliable detectability of ETP, of the normal value of plasma” value [2] was 2.5% and the “heparin (ISH) concentration” value [2] was 0.25 U ISH/mL.

In the case of “Boc-Glu(OtBu)-Gly-Gly-Gly-Val-Arg-pNA.HCl”, the step yield ([1]; coupling step, HCl) is reported as 82%.

For Boc-Glu(OtBu)-Gly-Gly-Val-Arg-pNA.HCl, the step yield ([1]; coupling step, HCl) was 79%.

Compound “Boc-Glu(OtBu)-Gly-Pro-Gly-Val-Arg-pNA.HCl” has a step yield ([1]; coupling step, HCl) of 91%.

Boc-Glu(OtBu)-Gly-Val-Arg-pNA.HCl gave a step yield ([1]; coupling step, HCl) of 90%.

In the case of “Boc-Glu(OtBu)-Pro-Gly-Gly-Val-Arg-pNA.HCl”, the step yield ([1]; coupling step, HCl) is reported as 79%.

With Boc-Gly-Gly-Gly-Val-Arg-pNA.HCl the step yield ([1]; coupling step, HCl) was 81%.

Boc-Gly-Pro-Gly-Val-Arg-pNA.HCl showed a step yield ([1]; coupling step, HCl) of 76%.

Compound Boc-Pro-Gly-Gly-Val-Arg-pNA.HCl has a step yield ([1]; coupling step, HCl) of 81%.

Square brackets hold non-standard residues; d marks the D form. Peptide text beside a SMILES is read from it. * marks the point of attachment. pNA = O=[N+]([O-])c1ccc(N*)cc1; Boc = CC(C)(C)OC(=O)*
